Measured values published in PubChem BioAssay AID1259415 (National Center for Advancing Translational Sciences (NCATS), 2018).
In all, about 410,000 compounds went through this assay and about 18,000 (4.4%) were called active. The shares of active, inactive and inconclusive entries below differ from those in the screen. Cut-off read from the data, not from the text of the source: active = activity change below about -60%; inconclusive = no clear call, values can overlap the other calls; inactive = above about -39%.

Test: qHTS Assay for inhibitors of the human cytomegalovirus (HCMV)
Conditions: HFF cells, HCMV-luciferase reporter, 72 h; at 57.5 µM; stronger effect = lower value
Outline: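 Luciferase read-out from HCMV-luciferase-infected HFFs (MOI 1 PFU/cell) 72 h post infection at 37C; compounds added after 16 h cell attachment; activity normalized between buffer-only basal and Salinomycin (10uM) inhibitor controls.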
% is set by controls: 0 for no effect and ±100 for the full control effect.

Compound | activity change, negative = inhibition
O=S(=O)(NCCc1csc2nc(-c3ccccc3)nn12)c1ccc(Oc2ccccc2)cc1 | active: -67%
CCOC(=O)c1c(NC(=O)c2cc3n(n2)C(C(F)(F)F)CC(c2cccs2)N3)sc(C)c1C (stereo unspecified) | inconclusive: -50.5%
O=C(Nc1ccc2c(c1)CCC2)C1CCN(c2ncccn2)CC1 | inconclusive: -50%
Cc1ccc(N2CC(C(=O)Nc3ccc4c(c3)OCCO4)CC2=O)cc1 (stereo unspecified) | inconclusive: -47%
O=C(NCC(=O)N1CCN(c2ccccc2O)CC1)c1ccc2c(c1)OCO2 | inactive: 1.26%
O=C(O)C1Cc2ccccc2N2CCCC12 (stereo unspecified) | active: -61.1%
CC1CCCC(C)N1C(=O)COC(=O)c1ccc2c(c1)OCO2 (stereo unspecified) | inactive: -24.8%
N#Cc1c(N)nc2c(c1-c1cccs1)CCCC2 | inconclusive: -46.8%
Cc1ccccc1C(=O)N1CCN(c2ccc(NC(=O)CSc3ccc(Cl)cc3)cc2)CC1 | active: -70.6%
c1ccc(NN=C(c2ccccc2)c2cccs2)cc1 | inactive: 39.9%
O=C1C=C(NCc2ccccc2)c2ccccc2C1=O | active: -83.9%
NC1(N)OC(CN2C(=O)c3ccccc3C2=O)CS1 (stereo unspecified) | inconclusive: -45.7%
C=CS(=O)(=O)c1c2cc(OC)ccc2nc2ccc(OC)cc12 | inconclusive: -58.6%
COc1cccc(COC(=O)c2cc(S(=O)(=O)N3CCOCC3)ccc2Cl)c1OC | inconclusive: -50.3%
O=C1[C@H]2[C@@H](c3ccccc3)N[C@]3(CCCN(CC4CCCCC4)C3=O)[C@H]2C(=O)N1Cc1ccccc1 | inactive: 13.7%
CCc1ccc(N(C(=O)C(F)(F)F)C(C(=O)NC2CCCCC2)c2ccncc2)cc1 (stereo unspecified) | inactive: -16.9%
CSc1nsc(/C=C/Nc2ccc(O)cc2C)c1C#N | inactive: 21%
CN(C)C1CN(Cc2cn(Cc3ccc(F)cc3)nn2)S(=O)(=O)C1 (stereo unspecified) | inactive: 7.64%
O=C1CC(NS(=O)(=O)c2ccccc2)CN1c1ccc2c(c1)OCCO2 (stereo unspecified) | inactive: 6.34%

Compound | activity change, negative = inhibition
Cc1cc(S(=O)(=O)Nc2ccc3oc4c(c3c2)CCCC4)ccc1Cl | inconclusive: -46.8%
S=C(Nc1ccc(Nc2ccccc2)cc1)NC1CCCCCC1 | active: -86.9%
O=C(c1ccc(Cl)c(S(=O)(=O)N2CCCCCC2)c1)N1CCN(c2ccccc2O)CC1 | inconclusive: -56.5%
CCCCC(=O)NC(Nc1sc2c(c1C(N)=O)CCCC2)(C(=O)OCC)C(F)(F)F (stereo unspecified) | inconclusive: -46.6%
CN(CC1CCOCC1)C(=O)CC1C(=O)NCCN1Cc1cccc(C(F)(F)F)c1 (stereo unspecified) | inactive: -16.8%
COc1ccc(Br)cc1CNC(=O)c1ccc2nc(C(C)C)oc2c1 | inconclusive: -46.5%
O=S1(=O)CCO[C@H]2Cc3ccccc3[C@H]2N1Cc1cccc(Cl)c1 | inconclusive: -43.5%
O=C(Nc1ccc2c(c1)S(=O)(=O)N=C1CCCCCN12)c1ccccc1Cl | inactive: 9.98%
CCOc1ccc(-n2ccnc2SCC(=O)Nc2cccc3ccccc23)cc1 | inconclusive: -47.1%
Cc1cccc(CC(=O)N2CC(=O)Nc3ccc(C)cc3C2c2ccc(F)cc2)c1 (stereo unspecified) | inactive: -12%
N#Cc1ccc(Sc2nc3ccccc3[nH]2)cc1C#N | active: -76.9%
COc1ccc(OC)c(NC(=O)c2cc(-c3cc(C)c(C)cc3O)n[nH]2)c1 | inconclusive: -45.3%
CN(C)C(=O)c1nc2ccc(Cl)cn2c1CN1CCCC(OCc2ccccc2)C1 (stereo unspecified) | inconclusive: -53.7%
COc1ccc(N(Cc2cccs2)C(=O)COc2cccc(C)c2C)cc1 | inconclusive: -56.7%
CCc1cc2c(-c3ccccc3)cc(=O)oc2cc1OCC(C)=O | inactive: 16.2%
Nc1nc(CN2CCN(Cc3ccccc3)CC2)nc(Nc2ccc3c(c2)OCCO3)n1 | inactive: 15.8%
Cc1cccc(C(=O)Nc2ccccc2-c2nnn(CC(=O)Nc3ccc4c(c3)OCCO4)n2)c1 | inconclusive: -56.8%
CCN1CCN(c2ncc3c(n2)CCN(CC(C)C)C3)CC1 | inactive: -7.77%
COC(=O)C1=C(c2ccc(OC)c(OC)c2)C[C@@H]2CC[C@H]1N2C(=O)NCc1cc(C)oc1C(F)(F)F | inactive: 1.06%

Compound | activity change, negative = inhibition
COc1ccc(-n2cc(-c3ccccc3)nc2SCC(=O)Nc2ccccc2C)cc1 | inactive: -4.81%
OCc1nc2ccccc2n1CC(O)Cn1ccc2ccccc21 (stereo unspecified) | inconclusive: -52.8%
C=CCc1cccc(CNc2nc3ccccc3n2C(C)C)c1O | inactive: -38.2%
COc1cc(OC)c(NS(=O)(=O)c2c(C(=O)N3CCCCCC3)c(C)n(C)c2C)cc1Cl | inactive: -15%
Cc1cc(-c2ccc(C)c(S(=O)(=O)Nc3ccccn3)c2)on1 | inconclusive: 0%
O=C(C#Cc1ccccc1)c1ccccc1 | active: -84%
O=C(N/N=C/c1ccc([N+](=O)[O-])s1)c1ccccc1 | inconclusive: -49.4%
COc1ccc(S(=O)(=O)NC(C)(C)C)cc1-c1nnc2c3ccccc3c(C)nn12 | inconclusive: -44.8%
Cc1ccc(C(=O)NN(CCC(=O)NC(C)(C)C)C2=NS(=O)(=O)c3ccccc32)cc1 | inconclusive: -40.3%
O=S(=O)(c1ccccc1F)N1CCN(CCc2ccccc2)CC1 | active: -72.3%
Nc1nc(-c2ccccn2)nc(N)c1Cc1ccc(Cl)cc1Cl | active: -93.3%
CC(C)[C@H](N)c1nnc2n1N=C(c1ccc(Cl)cc1)CS2 | inactive: 52.5%
Cc1ccc(S(=O)(=O)c2nc(-c3cccs3)oc2SCC(=O)Nc2cc(C)cc(C)c2)cc1 | inactive: -11.1%
CCC(=O)c1ccc(OCC(=O)OCC(=O)c2cc(C)n(C)c2C)cc1 | inconclusive: -57.9%
Cc1cccc(-n2c(Cc3cc(=O)[nH]c(=O)[nH]3)nnc2SC(C)C)c1 | inconclusive: -40.6%
Cc1cc(OCc2cc(C(=O)NC(C)c3c(C)nn(C)c3C)no2)cc(C)c1Cl (stereo unspecified) | inconclusive: -43.4%
COc1ccc(N2C(=O)CSC23C(=O)N(Cc2cccc(C(F)(F)F)c2)c2ccccc23)cc1 (stereo unspecified) | inconclusive: -45.5%
Cc1ccc(Nc2c3c(nc4nc(-c5cccs5)nn24)CCCC3)cc1F | inactive: 27%

For convenience, part of the list above:
Compound | activity change, negative = inhibition
O=C(N/N=C/c1ccc([N+](=O)[O-])s1)c1ccccc1 | inconclusive: -49.4%
COc1ccc(S(=O)(=O)NC(C)(C)C)cc1-c1nnc2c3ccccc3c(C)nn12 | inconclusive: -44.8%
Cc1ccc(C(=O)NN(CCC(=O)NC(C)(C)C)C2=NS(=O)(=O)c3ccccc32)cc1 | inconclusive: -40.3%
